Our source for the binding values is patent publication US20080233097A1, “Phosphorylation Site Of Mitogen-Activated Protein Kinases, Modified Proteins And Applications” (UNIVERSIDAD AUTONOMA DE MADRID, priority 2005, published 2008).

The chains behind the UniProt entries cited, without tags or fusion partners. Where a name states a change or a piece, a line headed by the entry shows the natural chain unless it says otherwise.
UniProt P47811: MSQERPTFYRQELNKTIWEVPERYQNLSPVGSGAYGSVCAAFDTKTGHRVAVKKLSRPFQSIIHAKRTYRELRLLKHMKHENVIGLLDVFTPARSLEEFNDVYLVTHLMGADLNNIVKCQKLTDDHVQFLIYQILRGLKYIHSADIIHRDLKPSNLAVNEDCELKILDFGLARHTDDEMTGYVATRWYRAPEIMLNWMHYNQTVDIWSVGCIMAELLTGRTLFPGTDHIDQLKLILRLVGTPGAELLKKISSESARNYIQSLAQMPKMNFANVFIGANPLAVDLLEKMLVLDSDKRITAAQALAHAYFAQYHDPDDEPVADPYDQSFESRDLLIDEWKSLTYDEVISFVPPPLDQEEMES
UniProt P21146: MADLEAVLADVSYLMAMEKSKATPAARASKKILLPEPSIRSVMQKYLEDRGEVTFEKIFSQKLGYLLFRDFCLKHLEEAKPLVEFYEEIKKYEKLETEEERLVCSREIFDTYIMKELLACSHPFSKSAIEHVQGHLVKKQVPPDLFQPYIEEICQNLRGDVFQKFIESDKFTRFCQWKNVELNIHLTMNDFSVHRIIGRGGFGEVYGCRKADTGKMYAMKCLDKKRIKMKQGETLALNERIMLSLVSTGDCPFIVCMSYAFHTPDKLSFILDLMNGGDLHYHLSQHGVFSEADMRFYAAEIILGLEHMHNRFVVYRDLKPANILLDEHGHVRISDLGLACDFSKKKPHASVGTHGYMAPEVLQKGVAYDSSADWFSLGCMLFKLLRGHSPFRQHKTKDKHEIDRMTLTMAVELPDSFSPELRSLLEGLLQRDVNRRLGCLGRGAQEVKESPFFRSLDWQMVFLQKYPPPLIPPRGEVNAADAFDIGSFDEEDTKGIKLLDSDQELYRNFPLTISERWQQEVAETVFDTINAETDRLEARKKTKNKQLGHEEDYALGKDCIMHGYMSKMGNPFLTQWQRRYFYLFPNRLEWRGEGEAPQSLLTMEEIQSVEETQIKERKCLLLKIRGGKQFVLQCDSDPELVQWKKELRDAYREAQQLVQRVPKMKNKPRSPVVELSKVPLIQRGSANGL
UniProt P25098: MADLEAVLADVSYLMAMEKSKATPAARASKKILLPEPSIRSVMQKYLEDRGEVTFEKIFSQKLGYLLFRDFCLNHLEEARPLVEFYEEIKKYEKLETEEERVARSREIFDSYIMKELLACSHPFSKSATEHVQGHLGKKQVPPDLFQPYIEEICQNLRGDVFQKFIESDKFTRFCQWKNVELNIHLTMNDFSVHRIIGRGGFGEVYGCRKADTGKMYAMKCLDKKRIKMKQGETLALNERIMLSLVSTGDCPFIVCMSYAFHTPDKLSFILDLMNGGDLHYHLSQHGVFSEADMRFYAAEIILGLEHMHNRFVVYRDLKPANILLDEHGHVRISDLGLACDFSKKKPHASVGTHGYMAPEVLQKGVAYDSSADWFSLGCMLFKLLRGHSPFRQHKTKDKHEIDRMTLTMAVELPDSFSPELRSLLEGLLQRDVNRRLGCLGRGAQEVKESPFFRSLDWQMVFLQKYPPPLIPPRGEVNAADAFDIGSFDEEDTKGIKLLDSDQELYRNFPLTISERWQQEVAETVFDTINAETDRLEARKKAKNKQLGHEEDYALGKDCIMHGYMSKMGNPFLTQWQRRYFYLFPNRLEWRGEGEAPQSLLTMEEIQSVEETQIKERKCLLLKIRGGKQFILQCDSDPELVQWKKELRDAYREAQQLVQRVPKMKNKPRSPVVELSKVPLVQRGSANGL

Test [1] addresses Flag-p38α (mouse, from pCDNA3-Flag-p38α, expressed in HEK 293 cells) (mouse) (UniProt P47811). Description: co-immunoprecipitation from transfected HEK293 lysates with M2 anti-Flag agarose, Western blot with anti-PF2. (In general: In western blotting, separated proteins are transferred to a membrane and probed.)
Test [2] has the same target. Nature of the test: reciprocal co-immunoprecipitation with anti-GRK2 antibodies, p38 detected in the immunoprecipitates.
For test [3] the target is unchanged. Nature of the test: reciprocal co-immunoprecipitation with anti-PF2 (anti-GRK2), Western blot with anti-p38.
For test [4] the target is unchanged. Description: co-immunoprecipitation with M2 anti-Flag agarose from transfected HEK 293 cells, Western blot with anti-PF2.
For test [5] the target is unchanged. Description: co-immunoprecipitation of endogenous GRK2 with Flag-p38α from HEK 293 cells.
Test [6] shares this target. Description: co-immunoprecipitation of endogenous GRK2 with Flag-p38α from HEK 293 cells transfected with β2-AR and Flag-p38α only.

Results are given in words; binding and its absence hold for the method and conditions named. Binding seen in cells or lysates may run through a third protein. Some binding calls cover weakened binding; strength is not graded here.

Turning to “GRK2 (bovine, overexpressed from pCDNA3-GRK2 in HEK 293 cells) (from UniProt P21146 1-689) (enzyme)”, the binding result in test [1], in test [2] and in test [3] was “binds” each time.

Consider “GRK2-K220R (catalytically inactive mutant of bovine GRK2, from pCDNA3-GRK2-K220R) (from UniProt P21146 1-689) (enzyme)”, for which the binding entry in test [4] was “binds”.

As to “endogenous GRK2 of HEK 293 cells (from UniProt P25098 1-689) (enzyme)”, the binding entry in test [5] and in test [6] was “binds” each time.
